Patent US20170189529A1
These are yes or no findings as the source states them, for the method shown. Binding calls can cover weak binding; strength is not graded here.

B1: TRL832 (antibody, V domains shown)
VH: QVQLVESGPGLMKPSETLSLTCTVSGGSVSNYYWSWIRQPPGKGLEWIGYVFYSGSSNYNPSLNNPSLKSRVTISIDTSNNQFSLKLSSVTAADTAVYYCARGRVNSGYDWGPNFDSWGQGALVTVSS
VL: DIVLTQAPSVSVSPGQTASITCSGDRLGEKFASWYQQKPGQSPVLVIYEDSKRPSGIPDRFSGSNSGNTATLTISGTQIMDEGDFFCQAWDSSTVVFGGGTKLTVLG
B2: TRL841 (antibody, V domains shown)
VH: QVQLVESGGGVVQPGRSLRLSCAASGFTFSSYGIYWVRQAPGKGLEWVAFISYDEINKFYADSVKGRFTISRDNSKNTVFLQMNSLRDEDTAVYYCAKPLRGSYRYFDLWGRGTVVTVSS
VL: DIVMTQPPATLSVSPGERATLSCGASQGLGSNLAWYQQKPGQAPRLLIYAASTRATGITARFSGSGSGTEFTLTINSLQSEDFALYYCQQYTYWPLTFGGGTKVEIKR
B3: TRL846 (antibody, V domains shown)
VH: QVQLVESGGGLVQPGGSLRLSCTVSGFTFNSYAMNWVRQAPGKGLEWVSGIRGSGENTYYAETVKGRFTISRDNSKNTLYLEMNSLRAEDTAVYYCARKWGRMTVFGVATDQLYYFDYWGQGTLVTVSS
VL: DITLTQSPATLSVSPGERATLSCRASQSVSSNLAWYQQKPGQAPRLLIYGASNRATDIPARFSGSGSGTEFTLTISSLQSEDFAVYYCQQFNDWPFLTFGGGTKVEIKR
B4: TRL856 (antibody, V domains shown)
VH: QVQLVESGGGLVQPGGSLRLSCAASGFTFSDYWMVWVRQAPGKGLVWVSRISSDGSTTSYADSVKGPFTISRDNAKNTLYLQMNSLRAEDTAVYYCARVATPYYYESGFDYWGQGALVTVSS
VL: DIVLTQSPSVSVAPGQTARITCGGNDIGSKSVHWYQQKPGQAPVLVVFDDRDRPSGIPERFSGSNSGNTATLTISRVEAGDEADYYCQVWDITSDLVVFGGGTKLTVVG
B5: TRL813 (antibody, V domains shown)
VH: QVQLVESGGGLVQPGGSLRLSCAASGFIFGDFAIHWVRQASGKGLEWVARIRSGLNRFETAYAASVEGRLTISRDDSKSMAYLQMNNVKAEDTAVYLCTYLVGAVGFQHWGQGTLVTVSS
VL: DIVMTQSPSTLSASVGDRVTITCRASQTIYRWLAWYQQKPGKAPKVLIYKASTLESGVPSRFSGSGSGTEFTLAISSLQPDDFATYYCQQYNSFPYRFGQGTKVEIKR

These binders were tested against hemagglutinin (HA) of influenza B virus B/Florida (Yamagata lineage) (influenza B virus B/Florida/06 (Yamagata clade)) (assay: recombinant HA ELISA).

| Binder | binding |
| --- | --- |
| B1 | binds |
| B2 | binds |
| B3 | binds |
| B4 | binds |
| B5 | binds |

What follows are binders tested against hemagglutinin (HA) of influenza B virus B/Malaysia (Victoria lineage) (influenza B virus B/Malaysia/04 (Victoria clade)) (assay: recombinant HA ELISA).

| Binder | binding |
| --- | --- |
| B1 | binds |
| B2 | binds |
| B3 | binds |
| B4 | binds |
| B5 | binds |

Each binder was assayed against recombinant HA of influenza B virus B/Brisbane/08 (Victoria clade) (influenza B virus B/Brisbane/08 (Victoria clade)) (assay: recombinant HA ELISA).

| Binder | binding |
| --- | --- |
| B1 | binds |
| B2 | binds |
| B3 | binds |
| B4 | binds |
| B5 | binds |

These binders were tested against recombinant HA of influenza B virus B/Mass/12 (Yamagata clade) (influenza B virus B/Mass/12 (Yamagata clade)) (assay: recombinant HA ELISA).

| Binder | binding |
| --- | --- |
| B1 | binds |
| B2 | binds |
| B3 | binds |
| B4 | binds |
| B5 | binds |

What follows are binders tested against recombinant HA of influenza B virus B/Wisconsin/10 (Yamagata clade) (influenza B virus B/Wisconsin/10 (Yamagata clade)) (assay: recombinant HA ELISA).

| Binder | binding |
| --- | --- |
| B1 | binds |
| B2 | binds |
| B3 | binds |
| B4 | binds |
| B5 | binds |
